This is an account of results in PMC4466636.

Chains of the proteins cited; added tags and fusions are not shown. Lines headed by an entry give the natural chain unless they say otherwise; changes in a name come on top.
UniProt P26039: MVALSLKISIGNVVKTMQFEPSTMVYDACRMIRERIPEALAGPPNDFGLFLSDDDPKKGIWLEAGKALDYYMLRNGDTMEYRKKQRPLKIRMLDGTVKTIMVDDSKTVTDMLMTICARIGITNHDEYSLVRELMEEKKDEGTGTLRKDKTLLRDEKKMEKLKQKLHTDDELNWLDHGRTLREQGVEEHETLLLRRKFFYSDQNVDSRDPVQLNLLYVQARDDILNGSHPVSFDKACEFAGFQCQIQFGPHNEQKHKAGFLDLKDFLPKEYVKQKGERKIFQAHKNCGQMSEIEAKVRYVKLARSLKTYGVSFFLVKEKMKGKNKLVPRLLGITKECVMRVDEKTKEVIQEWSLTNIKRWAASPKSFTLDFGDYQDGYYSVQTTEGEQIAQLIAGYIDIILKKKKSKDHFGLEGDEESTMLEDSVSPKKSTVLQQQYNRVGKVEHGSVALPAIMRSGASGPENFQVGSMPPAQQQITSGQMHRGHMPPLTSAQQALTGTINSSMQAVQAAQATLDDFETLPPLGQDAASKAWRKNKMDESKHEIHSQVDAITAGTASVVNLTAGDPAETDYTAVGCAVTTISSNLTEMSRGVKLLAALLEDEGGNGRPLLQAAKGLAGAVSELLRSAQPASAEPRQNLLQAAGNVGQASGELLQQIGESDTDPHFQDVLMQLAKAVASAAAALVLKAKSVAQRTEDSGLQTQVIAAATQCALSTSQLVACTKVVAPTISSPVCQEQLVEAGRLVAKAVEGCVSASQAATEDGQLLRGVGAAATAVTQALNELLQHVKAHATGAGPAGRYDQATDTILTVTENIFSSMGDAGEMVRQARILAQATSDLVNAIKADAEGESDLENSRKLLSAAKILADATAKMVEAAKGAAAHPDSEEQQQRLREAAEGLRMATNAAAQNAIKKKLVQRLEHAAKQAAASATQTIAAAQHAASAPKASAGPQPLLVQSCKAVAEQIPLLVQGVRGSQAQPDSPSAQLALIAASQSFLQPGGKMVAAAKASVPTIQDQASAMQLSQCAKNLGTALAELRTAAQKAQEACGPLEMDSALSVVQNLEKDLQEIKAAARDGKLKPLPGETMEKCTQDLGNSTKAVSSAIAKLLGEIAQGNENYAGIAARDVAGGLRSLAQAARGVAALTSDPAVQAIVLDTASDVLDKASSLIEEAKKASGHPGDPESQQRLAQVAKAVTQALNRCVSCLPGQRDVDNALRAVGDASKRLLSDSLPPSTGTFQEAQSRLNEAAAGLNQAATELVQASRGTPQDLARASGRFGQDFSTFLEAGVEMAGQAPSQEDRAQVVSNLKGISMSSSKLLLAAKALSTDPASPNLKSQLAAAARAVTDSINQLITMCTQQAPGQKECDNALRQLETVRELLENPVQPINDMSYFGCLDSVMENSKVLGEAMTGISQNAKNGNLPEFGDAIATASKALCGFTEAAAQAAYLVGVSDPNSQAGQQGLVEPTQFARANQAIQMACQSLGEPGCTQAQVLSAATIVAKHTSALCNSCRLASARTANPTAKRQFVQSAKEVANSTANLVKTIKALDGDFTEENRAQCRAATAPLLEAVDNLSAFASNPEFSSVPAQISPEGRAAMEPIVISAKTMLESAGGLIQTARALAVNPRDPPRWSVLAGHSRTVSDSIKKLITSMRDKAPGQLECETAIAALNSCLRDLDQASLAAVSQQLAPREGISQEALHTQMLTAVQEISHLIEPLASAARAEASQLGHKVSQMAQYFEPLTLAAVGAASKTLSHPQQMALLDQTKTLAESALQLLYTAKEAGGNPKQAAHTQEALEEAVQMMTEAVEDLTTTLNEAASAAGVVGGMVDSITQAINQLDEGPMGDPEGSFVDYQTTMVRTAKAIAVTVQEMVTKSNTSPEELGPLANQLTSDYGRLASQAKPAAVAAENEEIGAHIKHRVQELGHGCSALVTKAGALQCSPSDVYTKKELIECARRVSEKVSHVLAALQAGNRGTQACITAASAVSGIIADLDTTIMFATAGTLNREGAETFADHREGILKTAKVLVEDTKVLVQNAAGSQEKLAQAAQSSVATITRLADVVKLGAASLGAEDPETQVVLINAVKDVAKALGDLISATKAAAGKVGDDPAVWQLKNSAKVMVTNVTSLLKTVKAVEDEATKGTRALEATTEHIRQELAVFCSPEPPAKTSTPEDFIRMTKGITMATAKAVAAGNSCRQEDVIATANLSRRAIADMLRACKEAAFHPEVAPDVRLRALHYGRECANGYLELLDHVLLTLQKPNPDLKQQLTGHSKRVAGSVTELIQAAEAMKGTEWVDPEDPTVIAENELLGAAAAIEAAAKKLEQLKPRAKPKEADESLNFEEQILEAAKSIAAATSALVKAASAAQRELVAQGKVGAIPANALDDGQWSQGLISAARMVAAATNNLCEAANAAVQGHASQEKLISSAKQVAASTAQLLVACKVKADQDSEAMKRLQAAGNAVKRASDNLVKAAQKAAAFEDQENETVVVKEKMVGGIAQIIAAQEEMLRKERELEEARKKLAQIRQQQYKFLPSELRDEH
UniProt Q9QUM0: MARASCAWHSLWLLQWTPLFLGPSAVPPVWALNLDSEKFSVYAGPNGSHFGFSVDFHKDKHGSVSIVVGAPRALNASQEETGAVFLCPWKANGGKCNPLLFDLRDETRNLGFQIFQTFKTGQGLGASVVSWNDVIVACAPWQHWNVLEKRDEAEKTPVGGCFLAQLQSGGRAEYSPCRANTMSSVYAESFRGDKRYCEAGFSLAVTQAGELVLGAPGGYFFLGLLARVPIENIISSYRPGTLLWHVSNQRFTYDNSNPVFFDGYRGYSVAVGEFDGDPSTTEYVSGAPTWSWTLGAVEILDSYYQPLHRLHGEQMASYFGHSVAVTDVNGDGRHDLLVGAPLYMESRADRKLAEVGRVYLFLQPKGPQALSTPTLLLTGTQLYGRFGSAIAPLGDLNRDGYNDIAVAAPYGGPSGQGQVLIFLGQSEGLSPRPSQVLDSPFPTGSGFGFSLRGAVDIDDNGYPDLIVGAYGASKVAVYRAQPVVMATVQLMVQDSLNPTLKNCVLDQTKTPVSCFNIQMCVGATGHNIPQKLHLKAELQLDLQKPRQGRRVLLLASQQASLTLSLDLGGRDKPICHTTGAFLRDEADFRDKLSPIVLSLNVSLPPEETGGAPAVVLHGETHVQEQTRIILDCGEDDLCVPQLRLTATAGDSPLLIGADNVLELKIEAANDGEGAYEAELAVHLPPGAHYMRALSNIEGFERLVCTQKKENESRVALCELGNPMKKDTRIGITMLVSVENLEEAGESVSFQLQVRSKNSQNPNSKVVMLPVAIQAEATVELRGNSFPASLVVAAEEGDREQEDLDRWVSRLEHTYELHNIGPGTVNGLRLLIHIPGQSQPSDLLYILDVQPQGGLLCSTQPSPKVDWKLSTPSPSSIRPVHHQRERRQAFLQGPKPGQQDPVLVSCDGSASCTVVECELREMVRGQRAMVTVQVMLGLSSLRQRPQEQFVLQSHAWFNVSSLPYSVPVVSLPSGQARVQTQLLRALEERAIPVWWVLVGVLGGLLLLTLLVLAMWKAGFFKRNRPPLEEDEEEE

No constants are given. Whether binding was seen depends on the method and setting. Binding seen in cells or lysates may run through a third protein. Some entries that bind do so weakly or less than the wild type.

Assay [1] concerns the target talin1 (mouse (endogenous in platelets of C57BL/6J and P-sel-/- mice)) (UniProt P26039). The experiment in a line: co-IP; lysates of platelets from P-sel-/- mice; immunoprecipitation with anti-talin1 mAb, immunoblot for αIIb. For orientation: A western blot detects proteins with antibodies after separation by electrophoresis.
For assay [2] the target is unchanged. The assay is described as follows: co-IP; lysates of P-sel-/- platelets incubated with the cell-permeable P-sel-CT peptide TAT-CT (control peptide TAT); immunoprecipitation with anti-talin1 mAb, immunoblot for αIIb and talin1.
The target is the same in assay [3]. The experiment in a line: co-IP; lysates of wild-type platelets from C57BL/6J mice; immunoprecipitation with anti-P-selectin Ab or anti-talin1 mAb, extensive washing, immunoblot.
Assay [4] addresses T1, P-selectin (mouse (endogenous in platelets of C57BL/6J mice)) (UniProt Q01102).
T1 sequence: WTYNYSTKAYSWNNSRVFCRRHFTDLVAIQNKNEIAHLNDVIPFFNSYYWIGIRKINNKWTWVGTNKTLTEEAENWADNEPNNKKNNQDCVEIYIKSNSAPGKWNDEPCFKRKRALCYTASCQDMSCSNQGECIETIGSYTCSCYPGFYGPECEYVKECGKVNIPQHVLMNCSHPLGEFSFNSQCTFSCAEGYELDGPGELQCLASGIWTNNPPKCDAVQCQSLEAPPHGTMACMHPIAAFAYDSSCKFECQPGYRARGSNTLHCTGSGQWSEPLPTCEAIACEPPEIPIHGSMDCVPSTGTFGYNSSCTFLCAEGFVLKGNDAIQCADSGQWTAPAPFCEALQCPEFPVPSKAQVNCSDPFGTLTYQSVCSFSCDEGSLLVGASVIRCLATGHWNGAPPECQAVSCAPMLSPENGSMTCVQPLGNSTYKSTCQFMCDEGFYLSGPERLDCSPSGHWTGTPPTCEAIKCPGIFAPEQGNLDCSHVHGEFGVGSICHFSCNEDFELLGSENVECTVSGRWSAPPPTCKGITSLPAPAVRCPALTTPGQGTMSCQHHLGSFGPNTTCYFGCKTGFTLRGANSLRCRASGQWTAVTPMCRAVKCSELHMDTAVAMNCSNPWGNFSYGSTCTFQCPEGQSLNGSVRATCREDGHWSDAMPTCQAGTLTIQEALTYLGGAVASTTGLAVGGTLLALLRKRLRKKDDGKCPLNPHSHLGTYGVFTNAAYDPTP
Described as above.

As for “integrin αIIbβ3 (from UniProt Q9QUM0 32-1033; O54890 26-787) (complex)”, the binding result is “binds weakly” in assay [1], “binds” in assay [2] and “binds” in assay [3].

With talin1 (from UniProt P26039 1-2541), the binding entry in assay [4] is “binds”.

B1: P-selectin (protein, UniProt Q01102 42-768)
chain: WTYNYSTKAYSWNNSRVFCRRHFTDLVAIQNKNEIAHLNDVIPFFNSYYWIGIRKINNKWTWVGTNKTLTEEAENWADNEPNNKKNNQDCVEIYIKSNSAPGKWNDEPCFKRKRALCYTASCQDMSCSNQGECIETIGSYTCSCYPGFYGPECEYVKECGKVNIPQHVLMNCSHPLGEFSFNSQCTFSCAEGYELDGPGELQCLASGIWTNNPPKCDAVQCQSLEAPPHGTMACMHPIAAFAYDSSCKFECQPGYRARGSNTLHCTGSGQWSEPLPTCEAIACEPPEIPIHGSMDCVPSTGTFGYNSSCTFLCAEGFVLKGNDAIQCADSGQWTAPAPFCEALQCPEFPVPSKAQVNCSDPFGTLTYQSVCSFSCDEGSLLVGASVIRCLATGHWNGAPPECQAVSCAPMLSPENGSMTCVQPLGNSTYKSTCQFMCDEGFYLSGPERLDCSPSGHWTGTPPTCEAIKCPGIFAPEQGNLDCSHVHGEFGVGSICHFSCNEDFELLGSENVECTVSGRWSAPPPTCKGITSLPAPAVRCPALTTPGQGTMSCQHHLGSFGPNTTCYFGCKTGFTLRGANSLRCRASGQWTAVTPMCRAVKCSELHMDTAVAMNCSNPWGNFSYGSTCTFQCPEGQSLNGSVRATCREDGHWSDAMPTCQAGTLTIQEALTYLGGAVASTTGLAVGGTLLALLRKRLRKKDDGKCPLNPHSHLGTYGVFTNAAYDPTP
For the molecule B1, the binding result in assay [3] is “binds”.
